Test results published in patent US20240384233A1, “Method for Producing Cardiomyocytes by Means of Reprogramming” (Plastech Pharmaceutical Technology Co., Ltd., priority 2020, published 2024).
For at least one compound, name, drawing or mass did not settle the structure.

Legend:
Assay type in all cases: cell-based
[1] = system: Myh6-mCherry neonatal mouse skin fibroblasts (NSF); experiment: GMT-mediated reprogramming of Myh6-mCherry neonatal mouse skin fibroblasts into induced cardiomyocyte like cells (iCM); details: three weeks of induction
Protocol: Reprogramming steps: at d-2, plating cells; at d-1, infecting with virus; andat d0, removing virus-containing medium, and replacing with reprogramming medium. Beating cell count and immunofluorescence assay were performed after approximately 3 weeks.
iCM reprogramming medium: DMEM/M199 (4:1) supplemented with 10% KnockOut serum replacement (KSR), 10% FBS, 1% GlutaMAX, 1% MEM NEAA, 1% Pen Strep, 2 μg/ml Dox and small molecule mixture 2C (2 μM SB431542, 2 μM Baricitinib).
At D-2, 24-well plate was coated with 0.1% gelatin and then placed in a cell culture incubator at 37° C. for 30 min, then the gelatin was aspirated, and the 24-well plate was inoculated with 80,000 cells per well. At D-1, MEF medium containing 6 ng/μl polybrene was replaced, the cells were infected with FU-tet-o-Gata4, FU-tet-o-Mef2c, FU-tet-o-Tbx5, FUdeltaGW-rtTA, 200 μl unconcentrated virus per well per virus. […]
Screening was performed on Myh6-mCherry neonatal mouse dermal fibroblasts. Small molecule library was screened simultaneously with transfection of three genes of GMT (Gata4, Mef2c and Tbx5) to quantify the effect of small molecules on reprogramming by observing the ratio and brightness of reporter genes, as shown in FIG. 1A. […] After three weeks of induction, the number of Myh6-mCherry positive cells was observed and counted to screen for small molecules that promoted the induced cardiomyocyte like cells (iCM). […]

[2] = system: neonatal mouse fibroblasts; experiment: Reprogramming with knockdown of TGF receptor Alk5 plus MT and Baricitinib; details: 2 uM Baricitinib, absence of SB431542
[3] = system: neonatal mouse skin fibroblasts (NSF) and mouse cardiac fibroblasts (nCFs); experiment: Substitute for 2C: small molecules of the same signaling pathway (beating cells in GMT NSF, cTnT positive cells in MT nCF); details: combined with SB431542; GMT NSF D18 beating; MT nCF four weeks cTnT
Protocol: Specifically, at D-2 (day-2), Myh6-mCherry neonatal mouse skin fibroblasts (NSF) were plated; at D-1 (day-1),the cells were infected with three lentiviruses expressing Gata4, Mef2c and Tbx5 (GMT), respectively; at D0 (day 0), the media were replaced with reprogramming media added with small molecules, and replaced every 3-4 days; andat D18, beating cells were counted. In addition, at D-2, WT mouse cardiac fibroblasts (nCFs) were plated, and residual cardiomyocytes were removed with CD90.2 MACS; at D-1, the cells were infected with virus expressing Mef2c+Tbx5 (MT); at D0, the media were replaced with reprogramming media added with small molecules, and replaced every 3 days; and after four weeks, cTnT positive cells were counted.2C was used as a positive control.
SB431542 is an inhibitor of TGFβ signaling pathway, and this example analyzed whether other small molecules of this signaling pathway could be combined with Baricitinib, including RepSox, GW788388, SD-208, LY364947, Y-27632, LDN-193189, LY2109761 and Galunisertib. Baricitinib is an inhibitor of Jak pathway, and this example analyzed whether other small molecules of this signaling pathway could be combined with SB431542, including Filgotinib, WP1066, Gandotinib, Ruxolitinib and AZD1480. […]

[4] = system: WT mouse cardiac fibroblasts (nCFs); experiment: Replacement of Baricitinib in combination with SB431542 on the basis of MT transduction; details: three weeks
Excerpt: In addition, some small anti-inflammatory molecules have been reported to increase reprogramming-induced cardiomyocyte efficiency, such as Dexamethasone or Nabumetone.

CCS(=O)(=O)N1CC(CC#N)(n2cc(-c3ncnc4[nH]ccc34)cn2)C1 [Baricitinib]
efficiency of reprogramming induced cardiomyocytes (number of Myh6-mCherry positive cells) [1]: increase the efficiency of reprogramming induced cardiomyocytes | cTnI and a-actinin positive cardiomyocytes [2]: large numbers of cTnI and a-actinin positive cardiomyocytes

N#CC[C@H](C1CCCC1)n1cc(-c2ncnc3[nH]ccc23)cn1 [Ruxolitinib]
replacement of Baricitinib (beating cells, number of cTnT-positive cells) [3]: could be used for replacement

C[C@@H]1C[C@H]2[C@@H]3CCC4=CC(=O)C=C[C@]4(C)[C@@]3(F)[C@@H](O)C[C@]2(C)[C@@]1(O)C(=O)CO [Dexamethasone]
replacement of the effect of Baricitinib [4]: could not replace the effect of Baricitinib
